Test results published in the supplement of paper PMC10849652.
The other results are listed elsewhere or left out.

Sequences of proteins named here, by UniProt entry; tags and fusion partners are left off. A change or cut given only in a name is not applied to a line headed by its entry.
UniProt P55884, whole entry, looked up: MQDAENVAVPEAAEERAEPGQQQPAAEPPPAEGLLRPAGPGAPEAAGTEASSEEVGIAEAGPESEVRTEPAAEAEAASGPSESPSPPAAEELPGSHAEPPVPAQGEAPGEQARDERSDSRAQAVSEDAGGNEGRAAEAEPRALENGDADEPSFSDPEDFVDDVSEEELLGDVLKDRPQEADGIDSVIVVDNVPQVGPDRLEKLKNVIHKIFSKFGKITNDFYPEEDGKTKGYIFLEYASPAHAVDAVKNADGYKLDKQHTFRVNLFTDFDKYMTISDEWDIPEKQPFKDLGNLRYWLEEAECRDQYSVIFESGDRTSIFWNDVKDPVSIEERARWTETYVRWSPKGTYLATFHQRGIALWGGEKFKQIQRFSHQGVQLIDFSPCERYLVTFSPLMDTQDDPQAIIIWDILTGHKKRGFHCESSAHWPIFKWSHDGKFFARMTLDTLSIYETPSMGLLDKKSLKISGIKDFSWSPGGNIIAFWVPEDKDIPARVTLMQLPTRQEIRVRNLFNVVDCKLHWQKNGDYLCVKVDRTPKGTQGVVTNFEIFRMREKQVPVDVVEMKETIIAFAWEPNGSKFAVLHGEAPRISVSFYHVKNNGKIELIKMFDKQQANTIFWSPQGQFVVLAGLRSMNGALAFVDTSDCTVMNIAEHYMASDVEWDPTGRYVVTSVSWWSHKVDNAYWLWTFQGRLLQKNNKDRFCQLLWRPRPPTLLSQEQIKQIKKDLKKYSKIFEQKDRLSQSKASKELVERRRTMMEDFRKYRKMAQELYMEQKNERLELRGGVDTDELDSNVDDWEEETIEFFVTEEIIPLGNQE
UniProt Q5NDL2: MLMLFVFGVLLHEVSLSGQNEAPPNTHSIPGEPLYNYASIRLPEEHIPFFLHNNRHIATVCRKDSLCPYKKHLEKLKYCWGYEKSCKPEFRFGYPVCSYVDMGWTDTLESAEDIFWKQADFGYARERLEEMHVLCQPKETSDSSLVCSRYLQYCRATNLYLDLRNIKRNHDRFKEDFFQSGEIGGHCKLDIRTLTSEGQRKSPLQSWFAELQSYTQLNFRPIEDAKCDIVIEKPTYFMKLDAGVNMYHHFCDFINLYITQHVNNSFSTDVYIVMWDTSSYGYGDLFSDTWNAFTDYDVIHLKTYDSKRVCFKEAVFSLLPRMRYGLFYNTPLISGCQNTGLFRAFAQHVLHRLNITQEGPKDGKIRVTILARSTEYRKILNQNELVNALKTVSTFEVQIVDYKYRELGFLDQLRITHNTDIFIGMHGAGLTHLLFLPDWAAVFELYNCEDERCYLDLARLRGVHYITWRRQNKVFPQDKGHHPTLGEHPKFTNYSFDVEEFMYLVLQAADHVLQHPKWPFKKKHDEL
UniProt P11171, whole entry, looked up: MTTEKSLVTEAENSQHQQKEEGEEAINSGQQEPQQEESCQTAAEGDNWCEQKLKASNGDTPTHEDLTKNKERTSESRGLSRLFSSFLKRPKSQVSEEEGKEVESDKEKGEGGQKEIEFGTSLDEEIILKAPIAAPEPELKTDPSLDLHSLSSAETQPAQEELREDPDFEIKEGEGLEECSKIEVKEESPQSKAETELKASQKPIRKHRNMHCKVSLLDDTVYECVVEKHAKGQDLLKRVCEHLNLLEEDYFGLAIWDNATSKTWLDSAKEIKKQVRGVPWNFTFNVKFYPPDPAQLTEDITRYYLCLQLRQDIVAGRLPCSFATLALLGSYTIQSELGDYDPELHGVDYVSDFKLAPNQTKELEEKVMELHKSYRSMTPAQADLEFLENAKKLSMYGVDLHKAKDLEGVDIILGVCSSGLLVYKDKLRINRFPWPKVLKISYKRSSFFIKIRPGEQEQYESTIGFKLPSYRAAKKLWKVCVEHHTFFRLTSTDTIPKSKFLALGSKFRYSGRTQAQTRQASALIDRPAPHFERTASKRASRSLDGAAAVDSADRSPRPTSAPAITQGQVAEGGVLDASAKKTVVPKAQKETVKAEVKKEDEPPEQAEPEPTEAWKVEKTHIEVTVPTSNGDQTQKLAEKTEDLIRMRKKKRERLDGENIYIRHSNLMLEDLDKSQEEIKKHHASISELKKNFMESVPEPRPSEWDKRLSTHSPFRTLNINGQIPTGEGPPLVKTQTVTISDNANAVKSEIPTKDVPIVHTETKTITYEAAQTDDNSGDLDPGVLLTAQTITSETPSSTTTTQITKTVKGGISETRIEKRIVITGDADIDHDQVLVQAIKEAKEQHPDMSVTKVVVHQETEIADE
UniProt Q8N766: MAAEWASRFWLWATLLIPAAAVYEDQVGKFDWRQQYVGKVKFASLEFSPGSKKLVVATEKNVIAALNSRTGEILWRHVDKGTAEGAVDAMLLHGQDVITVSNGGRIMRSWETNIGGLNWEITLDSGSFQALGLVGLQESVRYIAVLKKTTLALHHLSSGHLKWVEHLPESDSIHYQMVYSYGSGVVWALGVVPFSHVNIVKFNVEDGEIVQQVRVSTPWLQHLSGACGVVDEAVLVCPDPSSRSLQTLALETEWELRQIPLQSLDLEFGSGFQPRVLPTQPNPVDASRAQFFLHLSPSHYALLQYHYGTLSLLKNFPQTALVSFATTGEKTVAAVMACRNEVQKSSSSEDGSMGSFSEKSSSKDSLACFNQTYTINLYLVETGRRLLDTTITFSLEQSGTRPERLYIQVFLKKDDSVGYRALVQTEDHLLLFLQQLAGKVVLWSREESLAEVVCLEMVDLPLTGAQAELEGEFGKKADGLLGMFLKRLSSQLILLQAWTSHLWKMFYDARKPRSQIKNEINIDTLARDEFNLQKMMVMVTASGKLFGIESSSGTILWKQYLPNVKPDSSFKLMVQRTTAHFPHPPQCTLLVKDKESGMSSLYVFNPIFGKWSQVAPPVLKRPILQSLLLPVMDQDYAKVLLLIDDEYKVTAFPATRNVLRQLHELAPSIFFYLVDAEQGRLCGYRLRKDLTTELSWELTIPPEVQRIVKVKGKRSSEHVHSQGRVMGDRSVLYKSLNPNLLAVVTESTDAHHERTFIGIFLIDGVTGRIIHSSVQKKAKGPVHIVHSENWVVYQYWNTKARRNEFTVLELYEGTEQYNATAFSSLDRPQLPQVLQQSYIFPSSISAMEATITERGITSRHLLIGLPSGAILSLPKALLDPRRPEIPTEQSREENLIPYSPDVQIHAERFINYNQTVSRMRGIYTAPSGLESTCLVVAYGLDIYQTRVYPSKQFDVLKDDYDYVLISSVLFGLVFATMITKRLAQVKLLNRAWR
UniProt P0DP91, whole entry, looked up: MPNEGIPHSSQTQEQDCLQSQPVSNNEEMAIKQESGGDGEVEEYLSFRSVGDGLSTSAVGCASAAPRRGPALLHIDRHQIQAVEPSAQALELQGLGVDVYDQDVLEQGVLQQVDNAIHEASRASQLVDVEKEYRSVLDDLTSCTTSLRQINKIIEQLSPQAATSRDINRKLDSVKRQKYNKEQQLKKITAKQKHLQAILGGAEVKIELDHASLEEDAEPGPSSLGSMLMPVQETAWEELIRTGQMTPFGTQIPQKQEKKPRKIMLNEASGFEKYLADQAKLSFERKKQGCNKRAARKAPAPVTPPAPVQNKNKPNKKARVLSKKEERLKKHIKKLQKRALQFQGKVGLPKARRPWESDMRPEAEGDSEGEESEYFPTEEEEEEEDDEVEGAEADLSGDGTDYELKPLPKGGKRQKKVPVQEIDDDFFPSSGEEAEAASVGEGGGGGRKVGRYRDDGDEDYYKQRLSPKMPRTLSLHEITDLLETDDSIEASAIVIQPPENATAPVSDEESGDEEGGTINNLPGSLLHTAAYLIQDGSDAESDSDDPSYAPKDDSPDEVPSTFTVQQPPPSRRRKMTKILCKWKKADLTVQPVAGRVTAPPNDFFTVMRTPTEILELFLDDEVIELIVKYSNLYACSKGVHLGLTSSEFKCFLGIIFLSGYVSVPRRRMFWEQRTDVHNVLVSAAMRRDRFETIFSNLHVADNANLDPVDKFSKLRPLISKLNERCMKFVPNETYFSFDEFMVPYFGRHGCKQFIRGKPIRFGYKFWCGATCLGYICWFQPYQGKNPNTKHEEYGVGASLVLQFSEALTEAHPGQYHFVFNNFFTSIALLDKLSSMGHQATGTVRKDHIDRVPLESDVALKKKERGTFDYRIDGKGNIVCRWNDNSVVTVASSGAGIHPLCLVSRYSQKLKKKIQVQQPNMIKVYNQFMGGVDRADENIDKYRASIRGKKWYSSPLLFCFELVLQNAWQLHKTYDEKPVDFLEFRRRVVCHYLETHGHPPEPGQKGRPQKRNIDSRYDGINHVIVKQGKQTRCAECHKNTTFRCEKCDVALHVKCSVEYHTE
UniProt Q8TE02: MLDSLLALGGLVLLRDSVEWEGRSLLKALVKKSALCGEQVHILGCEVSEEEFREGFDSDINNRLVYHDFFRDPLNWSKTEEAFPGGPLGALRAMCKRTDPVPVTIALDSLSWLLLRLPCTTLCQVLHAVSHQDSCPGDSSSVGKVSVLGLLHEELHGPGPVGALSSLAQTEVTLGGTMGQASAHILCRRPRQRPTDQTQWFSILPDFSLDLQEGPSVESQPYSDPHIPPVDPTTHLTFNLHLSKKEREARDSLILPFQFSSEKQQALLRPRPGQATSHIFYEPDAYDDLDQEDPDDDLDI
UniProt Q9NZJ5: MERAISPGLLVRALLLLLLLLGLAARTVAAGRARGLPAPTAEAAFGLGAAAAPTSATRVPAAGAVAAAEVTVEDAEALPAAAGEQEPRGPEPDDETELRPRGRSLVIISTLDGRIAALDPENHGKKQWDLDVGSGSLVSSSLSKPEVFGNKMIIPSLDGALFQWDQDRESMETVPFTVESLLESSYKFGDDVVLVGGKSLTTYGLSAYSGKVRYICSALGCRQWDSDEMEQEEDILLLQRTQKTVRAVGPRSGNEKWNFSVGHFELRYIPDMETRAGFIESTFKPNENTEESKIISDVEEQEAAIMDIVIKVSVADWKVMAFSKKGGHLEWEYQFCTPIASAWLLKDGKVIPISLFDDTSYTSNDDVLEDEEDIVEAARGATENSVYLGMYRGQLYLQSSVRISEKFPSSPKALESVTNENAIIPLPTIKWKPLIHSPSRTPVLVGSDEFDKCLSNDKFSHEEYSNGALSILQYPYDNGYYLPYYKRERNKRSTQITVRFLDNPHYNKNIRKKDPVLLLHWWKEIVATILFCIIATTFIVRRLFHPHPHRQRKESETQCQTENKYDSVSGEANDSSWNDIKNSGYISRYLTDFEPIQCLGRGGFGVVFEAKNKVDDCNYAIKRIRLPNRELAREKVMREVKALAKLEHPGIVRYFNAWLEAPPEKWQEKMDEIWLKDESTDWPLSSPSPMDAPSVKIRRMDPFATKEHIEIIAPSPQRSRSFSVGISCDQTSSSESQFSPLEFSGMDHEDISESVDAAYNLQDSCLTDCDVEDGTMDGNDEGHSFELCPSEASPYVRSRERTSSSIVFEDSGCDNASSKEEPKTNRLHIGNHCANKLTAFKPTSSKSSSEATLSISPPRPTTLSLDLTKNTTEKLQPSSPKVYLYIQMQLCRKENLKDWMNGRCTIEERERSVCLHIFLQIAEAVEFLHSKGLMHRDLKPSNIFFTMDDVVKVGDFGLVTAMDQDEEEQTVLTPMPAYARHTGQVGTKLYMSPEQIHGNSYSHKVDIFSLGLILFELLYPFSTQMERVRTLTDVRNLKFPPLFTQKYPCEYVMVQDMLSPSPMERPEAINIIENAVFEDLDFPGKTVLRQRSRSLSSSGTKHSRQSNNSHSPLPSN
UniProt Q96JJ3: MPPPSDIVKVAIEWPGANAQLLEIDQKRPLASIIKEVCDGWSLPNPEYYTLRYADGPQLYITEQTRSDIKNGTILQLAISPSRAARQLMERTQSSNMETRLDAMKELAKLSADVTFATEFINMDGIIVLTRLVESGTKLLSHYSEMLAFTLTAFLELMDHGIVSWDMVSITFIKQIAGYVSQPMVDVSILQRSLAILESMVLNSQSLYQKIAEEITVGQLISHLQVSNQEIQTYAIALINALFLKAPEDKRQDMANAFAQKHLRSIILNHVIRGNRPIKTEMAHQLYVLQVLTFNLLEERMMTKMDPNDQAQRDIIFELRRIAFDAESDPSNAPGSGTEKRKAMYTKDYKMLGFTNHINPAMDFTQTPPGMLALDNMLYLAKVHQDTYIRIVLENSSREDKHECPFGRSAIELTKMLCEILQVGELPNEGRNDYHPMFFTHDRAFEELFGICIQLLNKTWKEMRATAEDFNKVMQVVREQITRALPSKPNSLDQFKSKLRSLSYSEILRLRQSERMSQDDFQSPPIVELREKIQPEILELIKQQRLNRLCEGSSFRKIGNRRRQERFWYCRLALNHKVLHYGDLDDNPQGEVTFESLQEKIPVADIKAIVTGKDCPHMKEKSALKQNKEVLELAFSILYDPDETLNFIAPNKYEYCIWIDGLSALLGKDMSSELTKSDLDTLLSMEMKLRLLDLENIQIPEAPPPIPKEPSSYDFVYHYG

What was measured:
Experiment in all cases: log2 fold change, soluble protein after heating vs DMSO (PISA); higher = thermal stabilisation; K562 lysate, 10 uM; active = over 0.2 and 3.5 SD of the protein, either way, in both replicates (recomputed)
lapatinib = compound: CS(=O)(=O)CCNCc1ccc(-c2ccc3ncnc(Nc4ccc(OCc5cccc(F)c5)c(Cl)c4)c3c2)o1 [lapatinib]
Method in brief: (§1)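 Values give the log-two fold change in thermal stability against solvent controls, from duplicates. Crude K562 extract at 1 mg/mL protein, made by dounce homogenisation in PBS pH 7.4 with 1 mM MgCl2, was treated with 10 μM compound for 30 min. After 3 min heating across 48°C-58°C, aliquots were pooled, adjusted to 0.5% NP-40 at 4°C and centrifuged at 21,000xg for 90 min. The supernatant was measured by TMTpro 16plex LC-MS/MS with channel sums equalised.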

pictilisib = compound: CS(=O)(=O)N1CCN(Cc2cc3nc(-c4cccc5[nH]ncc45)nc(N4CCOCC4)c3s2)CC1 [pictilisib]
Method in brief: as §1

crizotinib = compound: C[C@@H](Oc1cc(-c2cnn(C3CCNCC3)c2)cnc1N)c1c(Cl)ccc(F)c1Cl [crizotinib]
Method in brief: as §1

[1] = compound: C[C@H](C1=CC=C(C=C1)C(=O)NC2=C3C=CNC3=NC=C2)N
Method in brief: as §1

duvelisib = compound: C[C@H](Nc1ncnc2nc[nH]c12)c1cc2cccc(Cl)c2c(=O)n1-c1ccccc1 [duvelisib]
Method in brief: as §1

gandotinib = compound: Cc1cc(Nc2cc(CN3CCOCC3)c3nc(C)c(Cc4ccc(Cl)cc4F)n3n2)n[nH]1 [gandotinib]
Method in brief: as §1

tozasertib = compound: Cc1cc(Nc2cc(N3CCN(C)CC3)nc(Sc3ccc(NC(=O)C4CC4)cc3)n2)n[nH]1 [tozasertib]
Method in brief: as §1

doramapimod = compound: Cc1ccc(-n2nc(C(C)(C)C)cc2NC(=O)Nc2ccc(OCCN3CCOCC3)c3ccccc23)cc1 [doramapimod]
Method in brief: as §1

bafetinib = compound: Cc1ccc(NC(=O)c2ccc(CN3CC[C@H](N(C)C)C3)c(C(F)(F)F)c2)cc1Nc1nccc(-c2cncnc2)n1 [bafetinib]
Method in brief: as §1

[2] = compound: Cc1cccc(CC(=O)N2CCc3c2ccc(-c2cn(C)c4ncnc(N)c24)c3F)n1
Method in brief: as §1

nilotinib = compound: Cc1cn(-c2cc(NC(=O)c3ccc(C)c(Nc4nccc(-c5cccnc5)n4)c3)cc(C(F)(F)F)c2)cn1 [nilotinib]
Method in brief: as §1

[3] = compound: Cc1nc(Nc2n[nH]c3c2CN(C(=O)N[C@H](CN(C)C)c2ccccc2)C3(C)C)c2sccc2n1
Method in brief: as §1

dasatinib = compound: Cc1nc(Nc2ncc(C(=O)Nc3c(C)cccc3Cl)s2)cc(N2CCN(CCO)CC2)n1 [dasatinib]
Method in brief: as §1

[4] = compound: Cc1ncc(-c2ccnc(Nc3ccc(S(C)(=O)=O)cc3)n2)n1C(C)C
Method in brief: as §1

[5] = compound: Cn1cc(-c2ccc3c(c2)CCN3C(=O)Cc2cccc(C(F)(F)F)c2)c2c(N)ncnc21
Method in brief: as §1

quisinostat = compound: Cn1cc(CNCC2CCN(c3ncc(C(=O)NO)cn3)CC2)c2ccccc21 [quisinostat]
Method in brief: as §1

tipifarnib = compound: Cn1cncc1[C@@](N)(c1ccc(Cl)cc1)c1ccc2c(c1)c(-c1cccc(Cl)c1)cc(=O)n2C [tipifarnib]
Method in brief: as §1

[6] = compound: NC(=O)Nc1cc(-c2cccc(F)c2)sc1C(=O)N[C@H]1CCCNC1
Method in brief: as §1

[7] = compound: NC(=O)c1cnc(N[C@@H]2CCCC[C@@H]2N)nc1Nc1cccc(-n2nccn2)c1
Method in brief: as §1

[8] = compound: NC1(c2ccc(-c3nc4ccn5c(=O)[nH]nc5c4cc3-c3ccccc3)cc2)CCC1
Method in brief: as §1

Target | log2 fold change (lapatinib) | log2 fold change (pictilisib) | log2 fold change (crizotinib) | log2 fold change [1] | log2 fold change (duvelisib) | log2 fold change (gandotinib) | log2 fold change (tozasertib) | log2 fold change (doramapimod) | log2 fold change (bafetinib) | log2 fold change [2] | log2 fold change (nilotinib) | log2 fold change [3] | log2 fold change (dasatinib) | log2 fold change [4] | log2 fold change [5] | log2 fold change (quisinostat) | log2 fold change (tipifarnib) | log2 fold change [6] | log2 fold change [7] | log2 fold change [8]
EIF3B isoform 2 (UniProt P55884) | inactive: -0.019 | inactive: 0.006 | inactive: -0.03 | inactive: 0.02 | inactive: 0.004 | inactive: -0.035 | inactive: -0.002 | inactive: 0.029 | inactive: 0.008 | inactive: -0.018 | inactive: -0.008 | inactive: 0.004 | inactive: -0.008 | inactive: -0.012 | inactive: 0.009 | inactive: -0.058 | inactive: 0.004 | inactive: 0.003 | inactive: -0.002 | inactive: -0.018
ELOVL1 (UniProt Q9BW60) | inactive: -0.189 | inactive: -0.026 | inactive: -0.104 | inactive: -0.014 | inactive: -0.039 | inactive: -0.177 | inactive: 0.029 | inactive: -0.093 | inactive: -0.052 | inactive: 0.046 |  |  | inactive: -0.012 |  | inactive: -0.05 | inactive: -0.038 |  | inactive: 0.091 | inactive: 0.065 | inactive: -0.053
EOGT (UniProt Q5NDL2) | inactive: 0.014 | inactive: -0.011 | inactive: 0.007 | inactive: -0.007 | inactive: -0.009 | inactive: -0.006 | inactive: 0.006 | inactive: 0.034 | inactive: -0.069 | inactive: 0.014 | inactive: 0.029 | inactive: 0.046 | inactive: -0.093 | inactive: 0.018 | inactive: -0.033 | inactive: 0.066 | inactive: 0.022 | inactive: -0.002 | inactive: 0.001 | inactive: -0.032
EPB41 isoform 4 (UniProt P11171) | inactive: 0.014 |  | inactive: -0.038 | inactive: 0.012 |  | inactive: -0.004 |  | inactive: 0.046 |  | inactive: -0.024 | inactive: 0.124 | inactive: 0.044 |  | inactive: -0.165 |  | inactive: -0.077 | inactive: 0.036 | inactive: 0.053 | inactive: 0.089 | inactive: -0.096
ENTR1 (UniProt Q96C92) |  |  | inactive: -0.108 |  |  |  | inactive: -0.001 | inactive: 0.066 |  |  | inactive: 0.005 | inactive: 0.004 |  | inactive: -0.088 |  | inactive: -0.112 | inactive: -0.051 | inactive: -0.006 |  | 
EMC1 isoform 3 (UniProt Q8N766) | inactive: -0.259 |  | inactive: 0.032 |  |  |  |  | inactive: 0.03 |  |  |  |  |  |  |  | inactive: -0.052 |  | inactive: 0.008 | inactive: -0.007 | 
EPC1 (UniProt Q9H2F5) |  | inactive: 0.144 | inactive: -0.076 | inactive: 0.235 |  | inactive: -0.054 |  | inactive: -0.448 | inactive: -0.317 | inactive: -0.03 |  |  |  |  |  | inactive: -0.332 |  | inactive: 0.172 |  | 
EIF3I (UniProt Q5TFK1) | inactive: -0.063 |  |  | inactive: 0.137 |  | inactive: 0.052 |  |  |  | inactive: 0.112 | inactive: 0.108 | inactive: -0.239 |  | inactive: -0.035 |  |  | inactive: -0.511 |  | inactive: 0.387 | 
EPN1 isoform 3 (UniProt Q9Y6I3) | inactive: 0.004 |  | inactive: -0.006 | inactive: -0.065 | inactive: -0.093 | inactive: 0.163 |  | inactive: -0.047 |  | inactive: -0.029 | inactive: 0.173 | inactive: 0.067 | inactive: -0.113 | inactive: -0.253 | inactive: -0.154 | inactive: 0.009 | inactive: -0.273 | inactive: -0.23 | inactive: 0.041 | inactive: 0
ERCC6 (UniProt P0DP91) |  | inactive: 0.089 |  |  | inactive: 0.132 |  | inactive: -0.249 |  | inactive: -0.332 |  | inactive: 0 | inactive: 0.02 | inactive: -0.093 | inactive: -0.036 | inactive: 0.048 |  | inactive: -0.023 |  |  | inactive: 0.193
ELP5 isoform 2 (UniProt Q8TE02) |  |  |  | inactive: -0.254 |  | inactive: 0.219 |  |  |  | inactive: 0.192 |  |  |  |  |  |  |  |  |  | 
ERF (UniProt P50548) |  |  | inactive: 0.096 |  | inactive: 0.032 |  |  | inactive: -0.044 |  |  | inactive: 0.038 | inactive: 0.001 | inactive: 0.042 | inactive: -0.096 | inactive: 0.089 | inactive: -0.056 | inactive: -0.094 | inactive: 0.027 |  | inactive: -0.127
EMC1 (UniProt H7C5A2) | inactive: -0.044 |  | inactive: 0.064 |  | inactive: -0.13 |  |  | inactive: -0.095 |  |  |  |  | inactive: -0.08 |  | inactive: -0.004 | inactive: 0.075 |  | inactive: 0.195 | inactive: 0.349 | inactive: -0.273
EIF3J isoform 2 (UniProt O75822) | inactive: 0.033 |  |  | inactive: 0.245 |  | inactive: -0.112 | inactive: 0.062 |  |  | inactive: -0.257 |  |  |  |  |  |  |  |  | inactive: -0.034 | 
ENO3 (UniProt K7EKN2) | inactive: -0.082 |  |  |  |  |  |  |  |  |  |  |  |  |  |  |  |  |  | inactive: 0.151 | 
EPN2 (UniProt I3L356) | inactive: 0.014 | inactive: -0.054 |  | inactive: -0.361 |  | inactive: 0.081 |  |  | inactive: 0.031 | inactive: 0.146 | inactive: -0.248 | inactive: 0.062 |  | inactive: -0.291 |  |  | inactive: 0.238 |  | inactive: 0.021 | 
ELAVL4 (UniProt P26378) | inactive: -0.017 |  | inactive: -0.065 | inactive: -0.064 | inactive: 0.03 | inactive: -0.034 | inactive: 0.05 | inactive: 0.035 |  | inactive: -0.061 | inactive: -0.07 | inactive: -0.062 | inactive: 0.006 | inactive: 0.092 | inactive: 0.039 | inactive: -0.07 | inactive: -0.06 | inactive: 0.07 | inactive: 0.01 | inactive: 0.024
EPB41, A0A2R8Y783 | inactive: -0.063 | inactive: 0.04 |  | inactive: 0.121 | inactive: -0.089 | inactive: -0.066 | inactive: 0.061 |  | inactive: 0.04 | inactive: -0.006 |  |  | inactive: 0.028 |  | inactive: -0.11 |  |  |  | inactive: -0.108 | 
ELK1 (UniProt P19419) |  | inactive: -0.187 |  | inactive: -0.032 | inactive: -0.009 | inactive: 0.011 | inactive: 0.374 |  | inactive: 0.047 | inactive: 0.007 |  |  | inactive: -0.317 |  | inactive: -0.027 |  |  |  |  | 
EPB41L5 isoform 2 (UniProt Q9HCM4) | inactive: -0.17 |  |  |  |  |  |  |  |  |  |  |  |  |  |  |  |  |  | inactive: 0.051 | 
EIF2AK3 (UniProt Q9NZJ5) | inactive: 0.3 |  |  | inactive: -0.051 | inactive: -0.122 | inactive: -0.212 |  |  |  | active: 1.48 | inactive: 0.124 | inactive: 0.012 | inactive: -0.385 | inactive: -0.001 | inactive: 0.269 |  | inactive: -0.088 |  | inactive: 0.104 | inactive: -0.166
ELMO2 (UniProt Q96JJ3) | inactive: 0.008 |  | inactive: -0.197 | inactive: -0.034 | inactive: -0.05 | inactive: 0.007 |  | inactive: -0.072 |  | inactive: 0.214 | inactive: 0.099 | inactive: -0.035 | inactive: 0.025 | inactive: -0.116 | inactive: -0.078 | inactive: -0.425 | inactive: -0.077 | inactive: 0.145 | inactive: 0.05 | inactive: 0.039
EME1 isoform 2 (UniProt Q96AY2) |  | inactive: -0.066 | inactive: -0.077 | inactive: 0.038 |  | inactive: -0.06 | inactive: 0.042 | inactive: 0.125 | inactive: -0.102 | inactive: -0.065 |  |  |  |  |  | inactive: -0.235 |  | inactive: 0.067 |  | 
ELOVL7 (UniProt A1L3X0) | inactive: -0.122 | inactive: -0.057 |  |  | inactive: 0.045 |  |  |  | inactive: -0.223 |  | inactive: 0.048 | inactive: 0.046 | inactive: -0.111 | inactive: -0.004 | inactive: -0.102 |  | inactive: -0.088 |  | inactive: 0.099 | inactive: 0.117
ELAC1 (UniProt Q9H777) | inactive: 0.084 | inactive: -0.223 |  | inactive: -0.104 |  | inactive: 0.003 | inactive: 0.218 |  | inactive: 0.014 | inactive: 0.064 |  |  |  |  |  |  |  |  | inactive: -0.012 | 

Retrieved one by one from above, 2 records:
Target | log2 fold change (lapatinib) | log2 fold change (pictilisib) | log2 fold change (crizotinib) | log2 fold change [1] | log2 fold change (duvelisib) | log2 fold change (gandotinib) | log2 fold change (tozasertib) | log2 fold change (doramapimod) | log2 fold change (bafetinib) | log2 fold change [2] | log2 fold change (nilotinib) | log2 fold change [3] | log2 fold change (dasatinib) | log2 fold change [4] | log2 fold change [5] | log2 fold change (quisinostat) | log2 fold change (tipifarnib) | log2 fold change [6] | log2 fold change [7] | log2 fold change [8]
ELK1 (UniProt P19419) |  | inactive: -0.187 |  | inactive: -0.032 | inactive: -0.009 | inactive: 0.011 | inactive: 0.374 |  | inactive: 0.047 | inactive: 0.007 |  |  | inactive: -0.317 |  | inactive: -0.027 |  |  |  |  | 
ELOVL1 (UniProt Q9BW60) | inactive: -0.189 | inactive: -0.026 | inactive: -0.104 | inactive: -0.014 | inactive: -0.039 | inactive: -0.177 | inactive: 0.029 | inactive: -0.093 | inactive: -0.052 | inactive: 0.046 |  |  | inactive: -0.012 |  | inactive: -0.05 | inactive: -0.038 |  | inactive: 0.091 | inactive: 0.065 | inactive: -0.053
